# Experiment: soluble on expression in E. coli; label from the status in PepcDB or PDB records
row,Sequence,soluble on expression in E. coli
1,MSLKGVSIALTCRAFEVSETCYRYSPKIDDENEQIADLLLGLVKAKKTWGFGLCFLYMRNVQGHGWNHKRVYRIYRELELNLRIKPRKRLKRDKPEALTVPEAANEVWSMDFMADRLGDGRQFRLLNVLDDFNREGVGIEVDFSLPAERVVRALNQIIEWRGAPKTIRVDNGPEYISGTLMEWAEHQGIALAHIQPRKPQQNAYVERYNRTVRHEWLDLHIFETIDQVQQIATEWLWSYNNERPNMGNGGMTPAQKLRMAAEGHHHHHH,not soluble
2,MSSLVSISKKLSGQRQHRERSQPEARRKYGELEKKKDYKLRAEDYQKKRDTIKKLKKSAMDKNQDEYHHHMVNSETWADGRHFDKKTEAEETETQIQKKLGSLKDLEYVKFKLNEEKKKIDEMKGELHFADSSLNGKGNTHTVFVDTDSEAKSFDPRVYFDTTTSMLSRQFNRLKNEDFQNKTIIGAGTKEQVRKADRVRRTRYNELIKRVERAKELQVVVDKLELKKQLAAGSKSELKPQKVKKAKAMRAAVYKWTYERKK,not soluble
3,MSSYLDDLRIDLAASPASGGSASIAVGSFNIPYEVTRRLKGVGADADTTLTSCASWTQLQKLYEQYGDEPIKKHFETDSERGQRYSVKVSLGSKDENFLFLDYSKSHINDEIKCALLRLAEERGIRQFVQSVFRGERVNTTENRPVLHIALRNRSNRPIYVDGKDVMPAVNKVLDQMRSFSEKVRTGEWKGHTGKAIRHVVNIGIGGSDLGPVMATEALKPFSQRDLSLHFVSNVDGTHIAEVLKSIDIEATLFIVASKTFTTQETITNALSARRALLDYLRSRGIDEKGSVAKHFVALSTNNQKVKEFGIDEENMFQFWDWVGGRYSMWSAIGLPIMISIGYENFVELLTGAHVIDEHFANAPPEQNVPLLLALVGVWYINFFGAVTHAILPYDQYLWRLPAYLQQLDMESNGKYVTRSGKTVSTLTGPIIFGEAGTNGQHAFYQLIHQGTNLIPCDFIGAIQSQNKIGDHHKIFMSNFFAQTEALMIGKSPSEVRRELEAAGERSAEKINALLPHKTFIGGRPSNTLLIKSLTPRALGAIIAMYEHKVLVQGAIWGIDSYDQWGVELGKVLAKSILPQLRPGMRVNNHDSSTNGLINMFNELSHLHHHHHH,soluble
4,MSTPQSEPGSEPGSPGENENSMETQYSQGSFPEVAVEPEPEPEPEPEPEPEPEPEPEPEPEPKPKPEVEPVPQPEPEPEYQPEPEPEPEVEPEPEPEPVPEPEPEPEPEPEPVVEKEEEVVVESPPREQEPEKSGKSKPSSPIPDAPTMEDIAPRELESLNFSETSGTSDQQADRIMQNNENERVEEKKQMSPTPSQPQHKTPQRSGIRPPTAILRQPKPIPASLPRPATATPSSQRAISTPRQTASTAPSPRPISKMSRERSDVQKSTSTRSIDNVGRMTPKVNAKFVNVKSKVGSVTNHKAGGGNVEIFSEKRLYNAQSKVGSLKNATHVAGGGNVQIENRKLDFSAASPKVGSKTNYQPAKSDVKIVSEKLTWQAKSKVGSMDNAAHKPAGGNVQILSQKLNWKAESKVGSKDNMNHRPGGGNVQIFDEKIRYVSTDSSRNHSTLDISSL,soluble
5,PGSSVSGTFGCLGGRLTIPGTGVSLLVPNGAIPQGKFYDLYLRINKTESTLPLSEGSQTVLSPSVTCGPTGLLLCRPVVLTVPHCAEVIAGDWIFQLKTQAHQGHWEEVVTLDEETLNTPCYCQLEAKSCHILLDQLGTYVFTGESYSRSAVKRLQLAIFAPALCTSLEYSLRVYCLEDTPAALKEVLELERTLGGYLVEEPKPLLFKDSYHNLRLSLHDIPHAHWRSKLLAKYQEIPFYHVWNGSQKALHCTFTLERHSLASTEFTCKVCVRQVEGEGQIFQLHTTLAETPAGSLDALCSAPGNAATTQLGPYAFKIPLSIRQKICNSLDAPNSRGNDWRLLAQKLSMDRYLNYFATKASPTGVILDLWEARQQDDGDLNSLASALEEMGKSEMLVAMTTDGDC,soluble
6,RFTWSMKTTSSMDPSDMMREIRKVLDANNCDYEQRERFLLFCVHGDGHAENLVQWEMEVCKLPRLSLNGVRFKRISGTSIAFKNIASKIANELKL,soluble
7,RNQALIKKGMEAIPVAGGAFSNYYRGGFDQKMSRAEAAKILGVAPSAKPAKIKEAHKKVMIVNHPDRGGSPYLAAKINEAKDLMESSKS,not soluble
8,SGSSRLRVFDPHLERKDSAAALSDRELPLPTFDVPYFKYIDEEDEDDEWSSRSQSSTEDDSVDSLLSDRYVVVSGTPEKILEHLLNDLHLEEVQDKETETLLDDFLLTYTVFMTTDDLCQALLRHYSAKKYQGKEENSDVPRRKRKVLHLVSQWIALYKDWLPEDEHSKMFLKTIYRNVLDDVYEYPILEKELKEFQKILGMHRRHTVDEYSPQKKNKALFHQFSLKENWLQHRGTVTETEEIFCHVYITEHSYVSVKAKVSSIAQEILLCSQLGKRVQLVKKFIKIAAHCKAQRNLNSFFAIVMGLNTASVSRLSQTWEKIPGKFKKLFSELESLTDPSLNHKAYRDAFKKMKPPKIPFVPLLLKDVTFIHEGNKTFLDNLVNFEKLHMIADTVRTLRHCRTNQFGDLSPKEHQELKSYVNHLYVIDSQQALFELSHRIEPRV,soluble
9,SLKIDIHTHILPKEWPDLEKRFGYGGWVQLQQQGKGEAKMMKDGKVFRVIQQNCWDPEVRIREMNQKGVTVQALSTVPVMFSYWAKPKDTLELCQFLNNDLAATVARYPRRFVGLGTLPMQAPGLAVEEMERCVKELGFPGIQIGSHINMWDLNDPELFPIYTAAERLNCSLFVHPWDMQMDGRMAKYWLPWLVGMPSETTTAICSMIMGGVFEKFPKLKVCFAHGGGAFPFTIGRIAHGFNMRPDLCARDNSSDPRKYLGSFYTDSLVHDPLSLKLLTDVIGKDRVILGTDYPFPLGEQEPGKLIESMADFDEETKDKLTAGNALTFLGLERKLFE,soluble

# Reference: the DeepSol protein solubility set
